{"source": "patent US12478643B2", "about": "“Compositions and methods for the prevention or treatment of rheumatoid arthritis” (Rhode Island Hospital, priority 2021, dated 2025)", "origin": "cited, not measured here", "key": {"SHIP1": {"molecular_target": "T1, SHIP1 (Homo sapiens, UniProt Q92835)", "T1 sequence (Q92835 1-1189)": "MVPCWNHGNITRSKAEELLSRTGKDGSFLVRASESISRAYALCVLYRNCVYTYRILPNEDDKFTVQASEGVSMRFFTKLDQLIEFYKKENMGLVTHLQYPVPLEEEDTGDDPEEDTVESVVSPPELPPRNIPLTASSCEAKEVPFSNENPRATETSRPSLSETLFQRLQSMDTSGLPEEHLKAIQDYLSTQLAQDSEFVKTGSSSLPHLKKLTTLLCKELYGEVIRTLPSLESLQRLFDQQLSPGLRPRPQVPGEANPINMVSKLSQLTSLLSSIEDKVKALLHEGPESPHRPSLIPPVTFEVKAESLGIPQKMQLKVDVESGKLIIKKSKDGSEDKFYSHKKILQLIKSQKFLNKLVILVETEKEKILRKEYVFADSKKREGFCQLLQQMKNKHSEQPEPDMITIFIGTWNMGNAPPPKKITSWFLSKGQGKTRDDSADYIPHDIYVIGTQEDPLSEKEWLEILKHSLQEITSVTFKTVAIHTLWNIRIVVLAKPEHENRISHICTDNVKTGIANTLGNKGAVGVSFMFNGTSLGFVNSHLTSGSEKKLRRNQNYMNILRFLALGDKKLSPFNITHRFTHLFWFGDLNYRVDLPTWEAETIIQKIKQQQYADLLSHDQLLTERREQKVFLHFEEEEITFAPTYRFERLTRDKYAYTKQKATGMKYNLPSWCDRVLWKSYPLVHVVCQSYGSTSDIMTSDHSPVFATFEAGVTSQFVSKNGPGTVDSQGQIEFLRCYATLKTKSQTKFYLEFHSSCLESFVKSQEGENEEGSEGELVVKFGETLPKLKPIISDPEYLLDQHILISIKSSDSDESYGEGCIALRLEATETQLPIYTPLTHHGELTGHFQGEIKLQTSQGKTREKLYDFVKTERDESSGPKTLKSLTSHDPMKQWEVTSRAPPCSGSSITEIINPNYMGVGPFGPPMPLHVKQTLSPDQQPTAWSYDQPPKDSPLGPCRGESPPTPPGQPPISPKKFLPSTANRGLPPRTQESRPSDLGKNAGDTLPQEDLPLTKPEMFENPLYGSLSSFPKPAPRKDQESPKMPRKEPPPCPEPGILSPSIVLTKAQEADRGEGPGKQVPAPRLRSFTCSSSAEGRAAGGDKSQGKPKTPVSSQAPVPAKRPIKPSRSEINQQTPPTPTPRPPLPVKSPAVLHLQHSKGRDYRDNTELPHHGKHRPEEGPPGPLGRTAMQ", "details": "cited from earlier work"}, "[1]": {"tested_on": "obese mice on a high fat diet", "details": "cited from earlier work"}, "[2]": {"details": "10 mg/kg, obese mice on high fat diet"}}, "note": "For at least one compound, name, drawing or mass did not settle the structure.", "data": [{"compound": "CC12CCCC1C1CCC3CC(N)CCC3(C)C1CC2", "note": "(stereo not drawn) [Compound K118]", "values": [{"measurement": "SHIP-1 inhibitor activity relative to 3AC", "setting": "SHIP1", "result": "comparable"}, {"measurement": "body mass", "setting": "[1]; 10 mg/kg, obese mice on high fat diet, vs pre-treatment and non-treated controls", "result": "reduced body mass"}, {"measurement": "blood glucose level", "setting": "[1]; [2]", "result": "reduced"}, {"measurement": "glucose tolerance", "setting": "[1]; [2]", "result": "improved"}, {"measurement": "insulin level", "setting": "[1]; [2]", "result": "reduced"}, {"measurement": "age-related fat accumulation", "setting": "[1]; mice", "result": "reduced"}]}]}
